# Screening data, single-dose tests

The chains behind the UniProt entries cited, without tags or fusion partners. Residues count along the entry.
UniProt Q8IDJ8, 1-583: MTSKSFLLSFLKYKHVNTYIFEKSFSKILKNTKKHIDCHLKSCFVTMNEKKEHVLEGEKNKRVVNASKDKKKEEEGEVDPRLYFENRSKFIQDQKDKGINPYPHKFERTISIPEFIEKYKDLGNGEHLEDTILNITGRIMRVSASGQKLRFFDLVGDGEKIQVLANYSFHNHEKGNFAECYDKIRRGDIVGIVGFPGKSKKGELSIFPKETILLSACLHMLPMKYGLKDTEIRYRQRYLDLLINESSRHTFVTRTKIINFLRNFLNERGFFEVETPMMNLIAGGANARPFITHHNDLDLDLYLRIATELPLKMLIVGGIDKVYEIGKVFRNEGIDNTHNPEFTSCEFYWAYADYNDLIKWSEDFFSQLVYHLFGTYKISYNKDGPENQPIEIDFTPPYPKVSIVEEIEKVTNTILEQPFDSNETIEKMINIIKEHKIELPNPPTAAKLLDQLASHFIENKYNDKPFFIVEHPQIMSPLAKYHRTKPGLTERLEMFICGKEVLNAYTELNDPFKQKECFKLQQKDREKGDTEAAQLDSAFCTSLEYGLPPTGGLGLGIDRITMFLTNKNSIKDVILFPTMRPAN
UniProt I6X8D2, whole entry: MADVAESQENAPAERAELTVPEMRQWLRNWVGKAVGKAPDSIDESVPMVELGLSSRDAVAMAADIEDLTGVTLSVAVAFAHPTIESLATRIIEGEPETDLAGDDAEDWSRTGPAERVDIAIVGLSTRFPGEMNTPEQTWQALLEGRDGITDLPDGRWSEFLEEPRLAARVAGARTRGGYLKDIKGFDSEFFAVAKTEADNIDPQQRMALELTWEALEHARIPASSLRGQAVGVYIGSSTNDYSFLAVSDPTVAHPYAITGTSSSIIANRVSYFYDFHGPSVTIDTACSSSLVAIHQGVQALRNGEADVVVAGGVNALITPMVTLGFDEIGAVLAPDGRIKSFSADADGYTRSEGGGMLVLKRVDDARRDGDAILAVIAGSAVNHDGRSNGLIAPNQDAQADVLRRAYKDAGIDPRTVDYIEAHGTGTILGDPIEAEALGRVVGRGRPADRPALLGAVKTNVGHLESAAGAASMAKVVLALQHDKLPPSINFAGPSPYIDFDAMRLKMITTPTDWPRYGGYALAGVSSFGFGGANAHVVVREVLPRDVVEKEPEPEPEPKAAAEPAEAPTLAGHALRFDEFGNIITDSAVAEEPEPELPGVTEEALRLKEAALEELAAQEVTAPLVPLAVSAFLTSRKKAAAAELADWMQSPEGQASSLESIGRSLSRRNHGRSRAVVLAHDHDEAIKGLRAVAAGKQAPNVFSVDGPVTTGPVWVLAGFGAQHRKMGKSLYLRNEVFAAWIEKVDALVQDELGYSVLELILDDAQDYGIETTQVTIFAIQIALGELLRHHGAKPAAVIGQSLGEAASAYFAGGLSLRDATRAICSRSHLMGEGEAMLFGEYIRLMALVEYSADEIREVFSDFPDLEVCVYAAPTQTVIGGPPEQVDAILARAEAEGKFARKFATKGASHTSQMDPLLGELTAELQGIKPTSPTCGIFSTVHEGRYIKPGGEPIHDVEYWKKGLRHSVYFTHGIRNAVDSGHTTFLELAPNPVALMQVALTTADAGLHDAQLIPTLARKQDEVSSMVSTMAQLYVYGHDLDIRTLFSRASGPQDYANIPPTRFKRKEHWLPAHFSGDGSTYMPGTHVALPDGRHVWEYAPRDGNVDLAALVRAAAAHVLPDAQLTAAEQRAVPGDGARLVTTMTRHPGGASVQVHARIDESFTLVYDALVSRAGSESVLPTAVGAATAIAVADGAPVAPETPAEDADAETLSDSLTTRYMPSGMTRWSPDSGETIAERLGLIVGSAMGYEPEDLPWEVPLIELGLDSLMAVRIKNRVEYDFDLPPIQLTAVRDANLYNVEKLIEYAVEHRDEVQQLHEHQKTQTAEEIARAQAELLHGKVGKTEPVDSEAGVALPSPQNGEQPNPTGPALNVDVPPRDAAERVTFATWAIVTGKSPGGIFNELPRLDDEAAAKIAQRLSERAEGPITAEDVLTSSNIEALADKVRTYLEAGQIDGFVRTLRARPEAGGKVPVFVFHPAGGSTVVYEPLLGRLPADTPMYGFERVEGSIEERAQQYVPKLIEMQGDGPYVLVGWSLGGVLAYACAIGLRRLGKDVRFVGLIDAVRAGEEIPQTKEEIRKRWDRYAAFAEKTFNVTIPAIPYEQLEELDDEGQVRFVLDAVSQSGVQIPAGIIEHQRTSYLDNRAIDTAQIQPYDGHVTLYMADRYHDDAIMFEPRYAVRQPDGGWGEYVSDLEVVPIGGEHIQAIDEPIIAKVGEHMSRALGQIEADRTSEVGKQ
UniProt P9WPC5, whole entry: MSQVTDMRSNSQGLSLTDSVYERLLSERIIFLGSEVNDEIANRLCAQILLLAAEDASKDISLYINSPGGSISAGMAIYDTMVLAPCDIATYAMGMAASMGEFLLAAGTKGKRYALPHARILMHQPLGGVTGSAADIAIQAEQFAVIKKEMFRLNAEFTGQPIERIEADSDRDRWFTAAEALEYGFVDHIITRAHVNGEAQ
UniProt P9WPC3, whole entry partner: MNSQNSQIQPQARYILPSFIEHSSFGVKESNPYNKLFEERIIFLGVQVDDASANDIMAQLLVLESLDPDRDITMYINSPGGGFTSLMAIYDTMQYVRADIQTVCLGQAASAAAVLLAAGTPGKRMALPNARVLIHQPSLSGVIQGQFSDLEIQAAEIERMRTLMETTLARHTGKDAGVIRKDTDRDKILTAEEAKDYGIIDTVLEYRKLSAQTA

PfKRS1: 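Lysine-tRNA ligase, Plasmodium falciparum 3D7 (UniProt Q8IDJ8). Enzyme assay of the cytosolic lysyl-tRNA synthetase in 384-well plates, read by luminescence. Concentration: 30 µM. Higher reads as stronger inhibition, judged from the few compounds that gave an IC50. Of about 69,000 compounds tested this way, about 49 (0.071%) reached 50% or more in at least one test.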
Pks13 thioesterase: 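Enzyme assay of the thioesterase domain of polyketide synthase 13; the read-out is not stated. Target: Polyketide synthase Pks13, Mycobacterium tuberculosis (UniProt I6X8D2). Tested at 30 µM. The record gives no direction; the compounds picked for IC50 retests had high values, so higher reads as stronger inhibition. Size under these conditions: about 67,000 compounds, about 300 of them at 50% or above in at least one test.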
ClpP1P2: 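ClpP1P2, Mycobacterium tuberculosis (UniProt P9WPC5 and UniProt P9WPC3). Protease assay of ClpP1P2, read by the AMC dye that it sets free. Tested at 50 µM. Higher reads as stronger inhibition, judged from the few compounds that gave an IC50. Most other retested compounds had strongly negative values. About 69,000 compounds were tested under these conditions; 0.015% (about 10) showed 50% or more at least once.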

Results are given as percent effect.
The record does not define 0% and 100%; most values in the screen are far below 50% and negative numbers occur (in some assays of this library far below -100).
The compounds are a random part of those screened.
A dash means the value is not listed here; it may have been measured.

Compound,PfKRS1,Pks13 thioesterase,ClpP1P2
CNc1cc2c(nn1)CCN(C(=O)c1ccccc1-n1cccn1)C2,-3.65,2.229,-8.782
O=c1[nH]cnc2[nH]c(N3CCOCC3)nc12,3.27,-9.221,-3.996
Nc1c(N2CCCCC2)ncnc1N1CCOCC1,3.604,-5.025,-16.03
COc1cccc(-c2cnc3n2CCC32CCN(S(C)(=O)=O)CC2)c1,5.271,24.89,-10.21
Cc1nc(CN2CCN(CCOc3ccc(C(C)C)c(C)c3)CC2)no1,-1.773,-1.723,14.98
Cc1ccc(CN2CCC3(CC2)CC(c2cccnc2)CO3)s1 (stereo not drawn),4.323,-8.507,4.118
CC(C)=CCCC1(C)C=Cc2c(cc(C)n(CCC(=O)O)c2=O)O1 (stereo not drawn),-1.1,1.639,-70.8
O=C(CCC(=O)N1CCOCC1)NCc1cccnc1-n1cccn1,0.3602,-18.98,3.055
O=C(N1CCCCC1)N1CCN(c2ccc(Cl)nn2)C(=O)C1,0.1634,-21.57,-4.798
OCC1CCCN1c1cc(NCc2ccc(Cl)s2)ncn1 (stereo not drawn),-0.871,-27.68,11.81
CCOCCN1CCN(CC(O)c2ccc(F)cc2)CC1 (stereo not drawn),5.193,-54.45,-12.37
Cc1nc(CN2CCCC(NCCOc3ccccc3C#N)C2)no1 (stereo not drawn),-1.25,5.883,-11.39
CCCc1cc(=O)[nH]c2nnc(SCC(N)=O)n12,1.271,-13.7,13.93
CCc1nc(NS(=O)(=O)c2ccc(F)cc2C)no1,-4.182,-17.33,-5.264
CCCn1c(NCCc2ccccc2)nc2c(C)nn(C)c2c1=O,2.485,-12.15,-4.147
CCn1c(C2CCN(C(=O)c3cc(C4CC4)on3)CC2)nn(C)c1=O,2.936,-3.182,2.602
CC(=O)N1[C@H](Cn2cncn2)C[C@@H]2CN(Cc3ccncc3)CC[C@@H]21,3.394,-26.02,-7.518
NS(=O)(=O)c1cnn(CCC(=O)N(Cc2ccccc2)C2CC2)c1,5.722,-5.71,5.307
CN(C)C(=O)N1CCN(c2ccc3ccc(C(=O)NC4CC4)cn23)CC1,-1.61,-6.483,-1.848
O[C@H]1CN(Cc2c[nH]nc2-c2ccccc2)CC[C@@]12CCCO2,-0.1373,-14.46,14.05
CN(C)C(=O)Cc1ccc(NC(=O)c2cn(C)nn2)cc1,1.603,-25.36,-4.065
CCCN1CCC(CC(=O)N2CC(C)(C)[C@@](C)(O)C2)CC1,0.5729,-32.32,-3.842
CCOc1ccc(CCCC(=O)N2CCC(C(=O)NC)C2)cc1C (stereo not drawn),5.344,-3.1,-3.994
CN(Cc1cc(Cl)c2c(c1)OCO2)Cc1cscn1,4.659,2.9,2.635
CCn1nnc2c1C(COC)CN(Cc1ccco1)C2 (stereo not drawn),1.799,-13.01,20.25
Cn1cnc(S(=O)(=O)NCCCN2CCCCCC2=O)c1Cl,2.839,7.347,2.847
COC[C@@]12CCO[C@@H]1CCN(Cc1ccccc1OC)C2,6.776,-,11.54
CC(C)c1noc(CN(C)C(=O)c2ccccc2-c2nc[nH]n2)n1,-0.8354,-38.5,8.192
O=C(NCCn1ccnc1)c1cc(F)cc(Br)c1,6.737,-50.82,10.81
Cc1ccc(CN2CC[C@H]3OCC[C@@H](C(=O)NC4CC4)[C@@H]3C2)o1,-10.26,-24.84,8.81
COc1ccc(F)c(F)c1CN1CCC2(CC1)[C@H](O)C[C@@H]2OCCN,7.251,-,-7.728
Fc1cnc(N2CCC3(CC2)CC(OCc2cccnc2)CO3)nc1 (stereo not drawn),-2.539,-17.94,-3.422
COc1ccccc1CN1CCC(O)(Cn2ccc3ncccc32)CC1,3.149,-,-4.199
CC(=O)NC[C@]1(O)CCN(C(=O)c2ccc(F)c(Cl)c2)C[C@H]1O,1.662,1.839,-8.525
Cn1cc(N2CCC3(CCN(S(=O)(=O)C4CC4)C3)C2=O)cn1 (stereo not drawn),0.9255,-5.571,-0.1812
COc1c(CNC2CCC(O)CC2)c(C(C)C)nn1C (stereo not drawn),0.2364,-12.68,-36.16
N#Cc1ccnc(N2CCN(CC(O)c3ccccc3Cl)CC2)c1 (stereo not drawn),1.679,-21.68,-6.142
CCn1nc(C)c2ccn(CC(=O)NC(C)C)c(=O)c21,-2.57,3.479,-2.548
CC(C)(O)CN1CCC(=O)N(Cc2ccco2)Cc2cc(F)ccc21,1.757,-5.747,8.278
CN(C)c1ccc(C(=O)N2CCN(Cc3cscn3)CC2)cc1F,6.545,-10.82,-1.669
CCn1nc(C)cc1S(=O)(=O)N1CCC2(CCCN(C(C)C)C2=O)C1 (stereo not drawn),2.646,13.21,-14.79
Cc1cc(NCC(C)C)ccc1C(=O)N(C)C,1.555,-13.09,-8.127
COCCOCC(=O)N1CCc2cc(Cl)cc(Cl)c2C1,0.4787,14.05,-14.57
Cc1nc(NC(=O)N[C@H](CO)c2ccccc2)sc1C,5.095,13.35,-5.598
O=C(c1ccccn1)N1CCc2c(nc(-c3ccncc3)[nH]c2=O)C1,2.746,-32.81,-2.732
CC(C)c1cc(C(=O)N2CCN(c3cccc(C(=O)O)c3)CC2)n(C)n1,10.09,12.11,2.179
CCN1CCC2(CC1)NC(=O)c1cc(Br)ccc1-n1nnnc12,3.939,-10.78,-1.999
CC(C)(CO)NCc1ccc(OCc2ccc3c(c2)OCCO3)cc1,0.7553,3.748,9.514
O=c1c2cccnc2cnn1CC(O)c1ccc(Br)cc1 (stereo not drawn),-0.4004,5.056,-6.065
CCc1cc(NCCN2CCNC2=O)n2nc(C)c(C)c2n1,0.7061,-22.04,-6.832
Cc1nnc(NC(=O)NCCN(C(=O)OC(C)(C)C)C2CC2)s1,-3.153,-29.08,3.036
O=C(c1ccn(-c2ccc(F)cc2)n1)N1CCCC(n2ccnc2)C1 (stereo not drawn),0.08852,-29.99,-6.876
CN(C(=O)CN(Cc1cccc(O)c1)C1CCC(O)CC1)C1CC1 (stereo not drawn),4.961,-17.21,-6.989
FC(F)(F)Sc1ccc(NCc2nnc(C3CC3)o2)cc1,-0.451,-12.71,5.681
N#Cc1ccc(OCCN2CCc3cncnc3C2)cc1,-0.6467,5.599,-28.78
Cc1nccn1-c1ccc(C(C)NCc2cccn2C)cc1 (stereo not drawn),1.845,12.02,-6.123
Cc1cc(NCCS(C)(=O)=O)nc2ccccc12,5.315,-22,-5.424
CC(=O)N1CCCC(Cc2cnc(C(=O)N3CCC(C)CC3)cn2)C1 (stereo not drawn),1.042,-8.398,-11.72
COc1ccc2c(c1)C(=O)NC1(CC2)CCN(Cc2cccnc2)C1 (stereo not drawn),-0.313,-0.2003,-8.471
CCOCc1nc2c(c(NCc3cc(C)on3)n1)CCN(C(C)=O)CC2,7.474,-10.33,-5.291
CC1CN(C)CCN1C(=O)c1cnn(-c2cccc(Cl)c2)c1 (stereo not drawn),1.394,-15.41,-0.303
CC(NC(=O)c1cc(Br)c2c(c1)OCCO2)C(N)=O (stereo not drawn),5.563,-18.65,-5.864
COc1cc(C(=O)N(Cc2ccco2)C2CC2)cc2c1OCCO2,6.28,-34.64,0.01637

The last 6 entries again:

Compound	PfKRS1	Pks13 thioesterase	ClpP1P2
CC(=O)N1CCCC(Cc2cnc(C(=O)N3CCC(C)CC3)cn2)C1 (stereo not drawn)	1.042	-8.398	-11.72
COc1ccc2c(c1)C(=O)NC1(CC2)CCN(Cc2cccnc2)C1 (stereo not drawn)	-0.313	-0.2003	-8.471
CCOCc1nc2c(c(NCc3cc(C)on3)n1)CCN(C(C)=O)CC2	7.474	-10.33	-5.291
CC1CN(C)CCN1C(=O)c1cnn(-c2cccc(Cl)c2)c1 (stereo not drawn)	1.394	-15.41	-0.303
CC(NC(=O)c1cc(Br)c2c(c1)OCCO2)C(N)=O (stereo not drawn)	5.563	-18.65	-5.864
COc1cc(C(=O)N(Cc2ccco2)C2CC2)cc2c1OCCO2	6.28	-34.64	0.01637

From ChEMBL document CHEMBL3988442, “University of Dundee, Small-Polar-MMV Screening Library” (2021).